Assay results as given in PubChem BioAssay AID2551 (National Center for Advancing Translational Sciences (NCATS), 2010).
In all, about 310,000 compounds went through this assay and about 17,000 (5.5%) were called active. This list was built around the results that the source calls inconclusive (neither active nor inactive); the mix of calls is not that of the screen. Calls follow the shape of the dose curve; as a rule, active = well fitted inhibition curve with a large enough effect; inconclusive = small, poorly fitted or top-dose-only effect, or effect the other way; inactive = no such curve, though single readings can be large or run the other way. A potency beside an inconclusive call is a rough fit, not a confirmed value.

Amino acid sequences for entries named in this document (tags omitted). A change or cut given only in a name is not applied to a line headed by its entry.
UniProt P51450: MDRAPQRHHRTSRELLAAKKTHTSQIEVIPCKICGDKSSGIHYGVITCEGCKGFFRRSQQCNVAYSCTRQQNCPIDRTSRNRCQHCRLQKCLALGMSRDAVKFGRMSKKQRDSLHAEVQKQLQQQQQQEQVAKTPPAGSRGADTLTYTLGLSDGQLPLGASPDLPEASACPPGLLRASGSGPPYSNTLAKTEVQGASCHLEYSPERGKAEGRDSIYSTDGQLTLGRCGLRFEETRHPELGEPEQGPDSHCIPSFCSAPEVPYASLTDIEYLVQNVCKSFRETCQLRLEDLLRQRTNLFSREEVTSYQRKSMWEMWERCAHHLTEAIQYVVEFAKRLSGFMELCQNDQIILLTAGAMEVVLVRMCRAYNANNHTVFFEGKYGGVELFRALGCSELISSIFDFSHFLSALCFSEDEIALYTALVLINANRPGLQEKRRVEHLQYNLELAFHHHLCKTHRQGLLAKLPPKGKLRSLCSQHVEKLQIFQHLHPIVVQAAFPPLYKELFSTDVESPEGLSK

biological target: Nuclear receptor ROR-gamma (Mus musculus) (UniProt P51450); test: qHTS for inhibitors of ROR gamma transcriptional activity; conditions: Drosophila S2 Gal4-RORgamma UAS-luciferase reporter, 20 h; activity change, negative = inhibition: at 53.6 µM (top of the series); also: nearly all actives have a fitted effect of over 60% in size
How it was run: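 Stably transfected Drosophila Schneider cells are the test system, with ROR gamma fused to Gal4 and luciferase under UAS control; luminescence is read after 20 hr of 700 uM copper sulfate induction at ambient temperature.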
% is scaled to controls: 0 for no effect and ±100 for the full control effect; potency is read from the fitted curve at half-maximal effect.

Potency, inactive:
Cn1c(N)c(C(=O)COC(=O)c2ccnc3ccccc23)c(=O)n(C)c1=O

Potency, inconclusive:
CC(/C=C/c1ccccc1)=N\NC(=O)Cn1nc(C)cc1C 31.6 µM [inhibitor, single point]
CCCCn1c(=O)c(C(C)=O)c(O)c2ccccc21 35.5 µM [inhibitor, single point]
CN(CC(=O)Nc1ccc(Cl)cc1)C(=O)c1cccc(S(=O)(=O)NCc2ccccc2)c1 11.2 µM [activator, partial curve]
N#Cc1ccc(CSc2nnc(NC(=O)c3ccc4ncsc4c3)s2)cc1 11.2 µM [inhibitor, partial curve]
O=c1cc2[nH]c3ccccc3c(=O)n2nc1-c1ccccc1 1.26 µM [activator, full curve, poor fit]
Cc1ccccc1CNC(=O)Cn1cnc(S(=O)(=O)N2CCCC2)c1 35.5 µM [inhibitor, single point]
CCOC(=O)c1sc(NC(=O)c2ccco2)c(C#N)c1C 11.2 µM [activator, partial curve]
Cc1cccc(C(=O)Nc2c(C#N)c(C)c(C)n2Cc2ccccc2)c1 0.447 µM [inhibitor, full curve]
CCOc1ccc(N(C(C)C(=O)N2CCCCCC2)S(C)(=O)=O)cc1 (stereo not given) 31.6 µM [activator, single point]
O=C(NCCN1CCOCC1)c1ccccc1Cl 0.316 µM [inhibitor, full curve, poor fit]
CCCc1ccc(OCCNC(C)=O)cc1 22.4 µM [activator, single point]
Cc1cccc(OCc2nnc(SCC(=O)Nc3cccc(C(=O)N4CCOCC4)c3)n2C)c1 1.26 µM [activator, partial curve]
COc1ccc2nc(NC(=O)c3ccc(Br)s3)sc2c1 5.01 µM [inhibitor, full curve]
COc1cc(CN2CCCCCC2)cc(Br)c1O 22.4 µM [inhibitor, partial curve]
Cc1ccc(/C=C2/NC(=O)N(Cc3ccccc3)C2=O)o1 35.5 µM [inhibitor, single point]
CC1CC2(C)Oc3ccccc3CC2C(C)C1CNCCCN(C)C (stereo not given) 20 µM [inhibitor, partial curve, poor fit]
Cc1ccc(NC(=O)CC2SC(=O)N(c3ccccc3)C2=O)cc1 (stereo not given) 15.8 µM [inhibitor, single point]
O=C(NNc1ccc(C(F)(F)F)cc1[N+](=O)[O-])c1ccc(NS(=O)(=O)c2ccc(F)cc2)cc1 35.5 µM [inhibitor, single point]
Cc1cc(S(=O)(=O)N2CCN(c3ccccc3F)CC2)ccc1-n1cnnn1 28.2 µM [activator, single point]
O=C(CSc1nc2c([nH]c3ccccc32)c(=O)n1-c1cccc(Cl)c1)N1CCOCC1 31.6 µM [inhibitor, single point]
CCCOc1ccc2ccccc2c1/C=C1\SC(=O)NC1=O 35.5 µM [activator, single point]
CC(C)(C)NC(=O)C(=O)NNC(=O)c1cccc(F)c1 14.1 µM [inhibitor, single point]
CCc1ccc(OCC(=O)Nc2cc(S(=O)(=O)CC)ccc2O)cc1 3.98 µM [activator, partial curve]
Cc1nn(Cc2c(F)c(F)c(F)c(F)c2F)c(C)c1NC(=O)c1ccc(COc2ccc(F)cc2)o1 31.6 µM [activator, single point]
COc1ccc(C(=O)N[C@H](C(=O)OCC(=O)NC(=O)c2cccn2C)C(C)C)cc1 12.6 µM [activator, single point]
CC(C)c1ccc(N(C(=O)c2snc(C(N)=O)c2N)C(C(=O)NCC2CCCO2)c2ccc(N(C)C)cc2)cc1 (stereo not given) 35.5 µM [activator, single point]
Cc1ccc2nc(-c3ccc4c(c3)NC(=O)CO4)cn2c1 1.12 µM [inhibitor, partial curve, poor fit]
COc1cc(NC2c3ccccc3C(=O)N2Cc2ccc3c(c2)OCO3)cc(OC)c1 (stereo not given) 17.8 µM [activator, single point]
COc1ccc(OC)c(S(=O)(=O)N2CCC(C(=O)NCCC3=CCCCC3)CC2)c1 5.01 µM [activator, single point]
COc1ccc2nc(NC(=O)CSc3nc4ccccc4o3)sc2c1 5.01 µM [activator, single point]
O=c1c(CCc2ccccc2)nc2cnc(N3CCNCC3)nc2n1CCc1ccccc1 10 µM [inhibitor, single point]
O=C1C(Cl)=C(N2CCOCC2)C(=O)N1c1cccc(Cl)c1 3.55 µM [inhibitor, single point]
CCOc1ccc(NS(=O)(=O)c2cc(NC(=O)c3ccc(C)cc3)ccc2Cl)cc1 17.8 µM [activator, partial curve]
Cc1ccc2cc(C#N)c(NCCNC(=S)NCCCN(C)C)nc2c1C 22.4 µM [inhibitor, single point]
O=C1C=C(c2ccccc2)OC(=O)C1C(=O)c1ccccc1 (stereo not given) 35.5 µM [inhibitor, single point]
CC1Cc2ccccc2N1C(=O)c1ccc(N2CCCCC2)c([N+](=O)[O-])c1 (stereo not given) 31.6 µM [activator, single point]
Cc1sc(NC(=O)c2c(F)cccc2F)nc1-c1ccccc1 3.16 µM [activator, single point]
O=C(CSc1nc2ncc(Cl)cc2[nH]1)Nc1cccc(F)c1 12.6 µM [inhibitor, single point]
CCN1C(=O)c2cccc3c(S(=O)(=O)Nc4ccccn4)ccc1c23 14.1 µM [inhibitor, single point]
COCC(=O)Nc1cc(Cl)ccc1C 12.6 µM [inhibitor, single point]
COC(=O)C(Cc1ccc(O)cc1)NC(=O)CCOc1ccc(OC)cc1 (stereo not given) 35.5 µM [activator, single point]

Three compounds picked at random from the list so far:
Potency, inconclusive:
Cc1nn(Cc2c(F)c(F)c(F)c(F)c2F)c(C)c1NC(=O)c1ccc(COc2ccc(F)cc2)o1 31.6 µM [activator, single point]
CC(/C=C/c1ccccc1)=N\NC(=O)Cn1nc(C)cc1C 31.6 µM [inhibitor, single point]
CCc1ccc(OCC(=O)Nc2cc(S(=O)(=O)CC)ccc2O)cc1 3.98 µM [activator, partial curve]

Following part:

Potency, active:
O=C(/C=C/c1ccco1)NC(=S)Nc1ccccn1 10 µM
O=C(Nc1cccc(Cl)c1Cl)c1cc(S(=O)(=O)NCCc2ccccc2)ccc1F 5.01 µM
Cc1nn2c(NCCN3CCOCC3)c3c(nc2c1-c1ccccc1)CCCC3 1.58 µM
CCCc1ccc(C(=O)O/N=C(\N)c2ccccn2)cc1 12.6 µM
CC1(C)CC(n2c(=S)[nH]c3ccccc3c2=O)CCO1 (stereo not given) 8.91 µM
Cc1ccc(Cn2cnc3ccccc32)cc1C 10 µM
c1ccc2cc3c(NCCN4CCOCC4)ccnc3cc2c1 11.2 µM
CCOCCCNC(=S)NCCNc1nc2c(C)cccc2cc1C#N 0.251 µM
O=[N+]([O-])c1cc(F)c2cccnc2c1O 1.26 µM
COc1ccccc1/C=C/C(=O)Nc1ccc2c(c1)OCCO2 1.58 µM
O=C(O)CCc1nn2c3ccccc3nc2n(-c2ccccc2)c1=O 11.2 µM
COc1ccc(OCC(=O)Sc2ccc(C)cc2)cc1 3.16 µM

Activity change, negative = inhibition, inactive:
O=C(c1cncc(Br)c1)N1CCc2ccccc2C1 -2.37%
CCn1cc(CN2CCC(C(=O)Nc3cccc(-c4cscn4)c3)CC2)cn1 -1.29%
Cc1ccc(-n2c(C)cc(C(=O)CN3CCOCC3)c2C)cc1 29.5%
CCOC(=O)c1cnc(-n2nc(C)cc2C)nc1Nc1cccc(C(=O)O)c1 -3.3% [at 10 µM]
COc1cc(C(=O)NCCNC(=O)C2CCCNC2=O)cc(OC)c1OC (stereo not given) 17.8%
COc1ccccc1NS(=O)(=O)c1ccc(C(N)=O)cc1 7.07%
Cc1ccccc1C(=O)N1CCN(c2ccc([N+](=O)[O-])c(NCc3ccco3)c2)CC1 21.1%
Cc1ccc(N=C2c3ccccc3C(=O)C2[N+](=O)[O-])cc1C (stereo not given) 1.85%
CCOC(=O)/C(=N\Nc1cc(Cl)ccc1Cl)N1CC(C)OC(C)C1 (stereo not given) -33.7%
Cc1onc(-c2ccccc2Cl)c1C(=O)NNC(=O)C1CCN(Cc2ccccc2)CC1 -0.0057%
COc1ccc(C2(c3ccc(O)cc3O)CC(c3ccccc3Cl)NC(=S)N2)cc1 (stereo not given) 1.4%
CC1(C)CC(=O)C2=C(C1)N(c1cccc(O)c1)C1=C(C2)C(=O)CC(C)(C)C1 -21%
OC[C@@H](O)CN1CCN(c2ccccc2)CC1 16.8% [at 16.9 µM]
COCC(C)n1c(C)cc(C(=O)CSc2cc(C)c3ccccc3n2)c1C (stereo not given) -19.8%
O=C(NCc1ccccc1)NC12CC3CC(CC(C3)C1)C2 7.56%
CCC(C)[C@H](NC(=O)NCc1ccccc1Cl)C(=O)O (stereo not given in full) -16.5%
COc1ccc(OC2C=CC(C#Cc3ccc(C(C)(C)C)cc3)OC2CO)cc1 (stereo not given) -0.748% [at 10 µM]
CCOc1ccccc1C(=O)NC1CCN(CC(=O)Nc2cc(OC)ccc2OC)CC1 0.776%
Cc1cc(=O)[nH]c(SCC(=O)N2C(C)CCCC2C)n1 (stereo not given) -1.86%
CSc1nc(N2CCOCC2)c2c3c(sc2n1)CCCC3 -21.3%
COc1ccc(-c2cc(C(=O)OCc3ccccn3)c3ccccc3n2)cc1 -9.32%

2 consecutive entries already listed, quoted:
Activity change, negative = inhibition, inactive:
CCC(C)[C@H](NC(=O)NCc1ccccc1Cl)C(=O)O (stereo not given in full) -16.5%
COc1ccc(OC2C=CC(C#Cc3ccc(C(C)(C)C)cc3)OC2CO)cc1 (stereo not given) -0.748% [at 10 µM]
